SMILES strings stand for the structures. “And” between values parts separate entries of the source, which are not always exact repeats. Equal values may be shown once. Some of the results follow. Shown are side measurements of this screen, not its main read-out; they come without a call. Compounds called inactive in the main read-out are mostly missing here. Potencies come from curve fits of mixed quality, noted in brackets.

A short description of this assay: Cell signaling CRE-BLA (Fsk stim). As to conditions: CHO CRE-bla reporter (cAMP response element driving beta-lactamase), forskolin EC10, beta-lactamase ratio; measured here: 460 nm blue channel. In a few lines: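 CRE-bla CHO cells stimulated with EC10 NKH 477 (water-soluble forskolin) and compound titrations, 3 h at 37C; beta-lactamase read with CCF4 after 2 h at room temperature. Activity from 460/530 nm emission ratio, AC50 values for positive or negative modulation.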
`CCOC(=O)N1CCN(C(C)C(=O)c2c[nH]c3ccccc23)CC1` (stereo not drawn): the AC50 is 6.31 µM [rising, partial curve, poor fit].

In the case of `CC[C@@]1(O)C(=O)OCc2c1cc1n(c2=O)Cc2cc3ccccc3nc2-1`, the AC50 is 0.0794 µM [rising, full curve, poor fit]. Consider `CC(C)c1ccc(O)c(CN2CCN(c3ccccc3)CC2)c1`, for which the AC50 is 25.1 µM [rising, single point]. For the compound `N[C@@H](Cc1c[nH]c2ccccc12)c1nnc(SCc2ccccc2)o1`, the AC50 was 3.16 µM [falling, single point]. As for `C/C=C1\C[C@H](C)[C@](O)(CO)C(=O)OCC2=CCN3CC[C@@H](OC1=O)[C@@H]23`, the AC50 was 12.6 µM [falling, partial curve, poor fit]. Regarding `CC[C@@H]1CN2CCc3cc(OC)c(OC)cc3[C@H]2C[C@@H]1C[C@@H]1NCCc2cc(O)c(OC)cc21`, the AC50 was 1.26 µM [falling, full curve].

Take `Cc1c(C(=O)c2cccc3ccccc23)c2cccc3c2n1[C@H](CN1CCOCC1)CO3`: the half-maximal activity concentration (AC50) is 12.6 µM [falling, single point]. Take `C1=C(c2c[nH]c3ccccc23)CCNC1`: the half-maximal activity concentration (AC50) was 0.01 µM [falling, full curve].

As to `COc1ccc(OC)c(C2=NOC(C(=O)N3CCC4(CC3)OCCO4)C2)c1` (stereo not drawn), the concentration at half-maximal activity (AC50) is 0.1 µM [falling, full curve, poor fit].

As for `CCCC/C(C)=C/[C@@H](NP(=O)(c1ccccc1)c1ccccc1)c1ccccc1`, the AC50 was 25.1 µM [falling, single point].

`COc1cc(CN2CCN(C(=O)COc3ccccc3)CC2)cc(OC)c1OC`: the half-maximal activity concentration (AC50) is 5.01 µM [rising, single point]. With `CCCC(C)C(=O)NC1CCSC1=O` (stereo not drawn), the AC50 is 1 µM [falling, partial curve, poor fit]. With `Oc1cccc2cccnc12`, the AC50 is 3.16 µM [falling, partial curve, poor fit]. Next, `CCC(=NCc1ccc2c(c1)OCO2)c1c(O)n(C2CCCCC2)c(=O)[nH]c1=O`: 1.26 µM [rising, partial curve]; `Cc1ccccc1NC1=NCCCS1`: 3.98 µM [falling, single point].

In the case of `CC1N(P(=O)(c2ccccc2)c2ccccc2)CC(O)(c2ccccc2)CC12CC2` (stereo not drawn), the AC50 is 25.1 µM [rising, single point]. Next, `CN(C)C(=O)Oc1ccc(C(=O)c2ccccc2)cc1`: 0.794 µM [rising, single point].

As for `CN(CC1COc2ccccc2O1)c1nc(-c2cccnc2)nc2ccccc12` (stereo not drawn), the AC50 was 12.6 µM [falling, partial curve]. As to `O=C(CCCOc1ccc(Cl)cc1Cl)N1CCC2(CC1)OCCO2`, the half-maximal activity concentration (AC50) is 12.6 µM [rising, single point]. With `CC(C)CC12CN3CCN(CC(C3)/C1=N/O)C2`, the AC50 is 0.631 µM [falling, full curve, poor fit].

For the compound `O=C(NCC(c1cccnc1)N1CCN(c2ccc(F)cc2)CC1)Oc1ccccc1` (stereo not drawn), the AC50 is 0.01 µM [falling, partial curve, poor fit].

In the case of `CCCCCCCCCc1ccc(O)cc1`, the AC50 was 10 µM [rising, partial curve, poor fit]. In the case of `CCC(=NCc1ccco1)c1c(O)[nH]c(=O)[nH]c1=O`, the AC50 is 15.8 µM [rising, single point]. Next, `c1ccc(CN2CCC3(CCNCC3)CC2)cc1`: 25.1 µM [rising, single point]; `[O]=[Cr](=[O])([OH])[O][Cr](=[O])(=[O])[OH]`: 1 µM [falling, full curve, poor fit]; `CCC(=Nc1ccc(OC)cc1OC)c1c(O)[nH]c(=O)[nH]c1=O`: 12.6 µM [rising, partial curve]. Next, `O=C(Cn1ncc2c3ccccc3n(Cc3ccc(F)cc3)c2c1=O)N1CCC2(CC1)OCCO2`: 0.1 µM [falling, full curve]; `COc1ccc2[nH]cc(CCN)c2c1`: 10 µM [falling, partial curve]; `CNc1ccc2oc(C[C@@H]3O[C@@]4(CC[C@H]3C)O[C@@H]([C@@H](C)C(=O)c3ccc[nH]3)[C@@H](C)C[C@H]4C)nc2c1C(=O)O`: 0.1 µM [rising, full curve, poor fit]. As for `O=C1CC(C(=O)N2CCC3(CC2)OCCO3)CN1CCc1ccccc1` (stereo not drawn), the AC50 was 0.0501 µM [falling, full curve, poor fit].

As to `C=CCn1c(O)c(C(=O)CCCCCC)c(=O)[nH]c1=O`, the concentration at half-maximal activity (AC50) is 12.6 µM [falling, single point]. Next, `O=C(O)/C=C\c1ccc[c]([Sb](=[O])([OH])[OH])c1`: 2 µM [rising, partial curve]. `O=c1[nH]c(=O)n(C2CCCCC2)c(O)c1C1NCCc2ccccc21` (stereo not drawn): the AC50 is 10 µM [falling, partial curve].

Turning to `CC(=NCCCN1CCOCC1)c1c(O)n(-c2ccccc2C)c(=O)[nH]c1=O`, the AC50 is 10 µM [falling, partial curve]. As to `C[C@@H]1CC[C@@]2(OC1)O[C@H]1[C@@H](O)[C@H]3[C@@H]4CC[C@H]5C[C@@H](O[C@@H]6O[C@H](CO)[C@H](O[C@@H]7O[C@H](CO)[C@@H](O)[C@H](O[C@@H]8OC[C@@H](O)[C@H](O)[C@H]8O)[C@H]7O[C@@H]7O[C@H](CO)[C@@H](O)[C@H](O[C@@H]8O[C@H](CO)[C@@H](O)[C@H](O)[C@H]8O)[C@H]7O)[C@H](O)[C@H]6O)[C@H](O)C[C@]5(C)[C@H]4CC[C@]3(C)[C@H]1[C@@H]2C`, the concentration at half-maximal activity (AC50) was 0.794 µM [falling, full curve].

Consider `Cc1ccc2c(c1)CC1(CN2C)C(=O)NC(=O)N(c2cccc(C)c2C)C1=O` (stereo not drawn), for which the concentration at half-maximal activity (AC50) is 1.58 µM [falling, full curve, poor fit]. Turning to `O=C1C=C2C=C[C@H]3C[C@@]2(O1)[C@H]1CCCCN31`, the AC50 was 10 µM [falling, partial curve] and 10 µM [falling, partial curve, poor fit]. Turning to `O=S1OCC2C(CO1)C1(Cl)C(Cl)=C(Cl)C2(Cl)C1(Cl)Cl` (stereo not drawn), the concentration at half-maximal activity (AC50) is 15.8 µM [rising, partial curve]. As for `O=C(Nc1ccccc1OC(=O)N1CCCCC1)N1CCCCC1`, the AC50 is 0.00316 µM [falling, full curve, poor fit]. On to `CNP1(NC)=Nc2nn(-c3ccccc3)c(N)c2C(c2ccccc2)=N1`, for which the AC50 was 5.01 µM [falling, single point]. `C[n+]1c(/C=C\c2ccc(O)c3ncccc23)[se]c2ccccc21`: the AC50 is 3.98 µM [rising, single point]. Consider `Cc1o[nH]c(=O)c1C[C@H](N)C(=O)O`, for which the AC50 is 12.6 µM [rising, single point]. On to `CC(=NCCC1=CCCCC1)c1c(O)n(C)c(=O)n(C)c1=O`, for which the half-maximal activity concentration (AC50) was 20 µM [rising, single point]. As to `COc1cc(-c2ccc(N)c(OC)c2)ccc1N`, the AC50 is 25.1 µM [rising, partial curve].

For `CC(C)OC(=O)Cc1ccccc1`, the AC50 is 1 µM [falling, full curve, poor fit]. As for `CCCCn1c(N)c(C(=O)OCC2CCCO2)c2nc3ccccc3nc21` (stereo not drawn), the half-maximal activity concentration (AC50) is 3.98 µM [rising, partial curve]. Next, `CC(=NCc1ccc(F)cc1)c1c(O)n(C)c(=O)n(C)c1=O`: 6.31 µM [rising, partial curve]; `FC(F)(F)c1ccc2c(c1)NP(=S)(N1CCOCC1)c1nccn1-2` (stereo not drawn): 25.1 µM [rising, single point]. For `Cc1nc(-c2ccc(-c3ccc(C(=O)N4CCc5cc6c(cc54)C4(CCN(C)CC4)CO6)cc3)c(C)c2)no1`, the concentration at half-maximal activity (AC50) was 0.251 µM [rising, full curve, poor fit].

As for `NNc1c(C(N)=O)c2c(N)ncnc2n1[C@@H]1O[C@H](CO)[C@@H](O)[C@@H]1O`, the concentration at half-maximal activity (AC50) is 0.00631 µM [falling, full curve]. Regarding `c1ccc(N2CCC3(CCNCC3)CC2)nc1`, the AC50 was 3.98 µM [falling, partial curve]. Turning to `CCOC(=O)c1c(N)n(Cc2ccco2)c2nc3ccccc3nc12`, the concentration at half-maximal activity (AC50) is 10 µM [rising, partial curve].

For the compound `CCC(C)NC(=O)c1c(N)n(CCCOC)c2nc3ccccc3nc12` (stereo not drawn), the AC50 is 10 µM [rising, partial curve]. Regarding `CCOC(=O)C1C(=O)NC2(C)CC1c1cc(OC)ccc1O2` (stereo not drawn), the AC50 was 0.0794 µM [falling, full curve, poor fit]. Next, `COc1ccc(C2=NCC(=O)N(CC(=O)NCc3ccco3)c3sc4c(c32)CCCC4)cc1`: 0.398 µM [falling, partial curve, poor fit]; `O=[N+]([O-])c1c(Cl)c(Cl)c(Cl)c(Cl)c1Cl`: 31.6 µM [falling, single point]. For the compound `CCCCCCCCCOc1ccc2[nH]cc(CCN)c2c1`, the half-maximal activity concentration (AC50) is 31.6 µM [falling, single point]. Regarding `FC(F)(F)c1ccc2c(c1)nnn2C1CCN(Cc2nnnn2Cc2ccccc2)CC1`, the AC50 is 12.6 µM [rising, single point]. For `Clc1ccc(COC(Cn2ccnc2)c2ccc(Cl)cc2Cl)cc1` (stereo not drawn), the half-maximal activity concentration (AC50) is 25.1 µM [falling, partial curve].

As to `CN1CCN(C(=O)COc2ccc3ccccc3c2Br)CC1`, the AC50 was 2.51 µM [rising, partial curve]. As to `Cc1ccc2c(c1)C1CN(C)CCC1N2C(=O)Cn1cnc2c1c(=O)n(C)c(=O)n2C` (stereo not drawn), the AC50 is 3.16 µM [falling, partial curve]. For `O=C1C2CC=CCC2C(=O)N1SC(Cl)(Cl)Cl` (stereo not drawn), the AC50 is 2.51 µM [falling, full curve] and 3.16 µM [falling, full curve].

In the case of `CCCCN1CCC(C#N)(Nc2ccccc2)CC1`, the AC50 was 3.16 µM [rising, single point].

For the origin of these results see PubChem BioAssay AID662 (National Center for Advancing Translational Sciences (NCATS), 2007).
